In PMC12350847:
Results are given in words; binding and its absence hold for the method and conditions named. In cells and extracts the contact can be indirect. Some entries that bind do so weakly or less than the wild type.

Sequences of proteins named here, by UniProt entry; tags and fusion partners are left off.
UniProt P26651: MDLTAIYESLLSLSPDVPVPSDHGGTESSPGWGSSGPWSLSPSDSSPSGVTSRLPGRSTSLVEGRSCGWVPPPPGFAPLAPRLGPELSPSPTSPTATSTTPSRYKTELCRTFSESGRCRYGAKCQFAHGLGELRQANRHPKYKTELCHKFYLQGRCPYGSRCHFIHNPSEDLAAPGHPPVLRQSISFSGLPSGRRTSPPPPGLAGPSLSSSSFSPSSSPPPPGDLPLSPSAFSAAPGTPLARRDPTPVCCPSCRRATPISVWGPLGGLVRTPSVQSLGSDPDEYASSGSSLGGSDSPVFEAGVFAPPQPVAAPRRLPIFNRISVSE

Target: hyperphosphorylated TTP (from okadaic acid-treated HEK‑293T cells) (human) (UniProt P26651)
Assay: pull-down; hyperphosphorylated TTP from okadaic acid-treated (1 µM, 90 min) HEK-293T cells as bait (Supplementary Fig. 7c,e,f); details not shown

binding: binds
B1: 14‑3‑3η (protein, UniProt Q04917 1-246)
chain: MGDREQLLQRARLAEQAERYDDMASAMKAVTELNEPLSNEDRNLLSVAYKNVVGARRSSWRVISSIEQKTMADGNEKKLEKVKAYREKIEKELETVCNDVLSLLDKFLIKNCNDFQYESKVFYLKMKGDYYRYLAEVASGEKKNSVVEASEAAYKEAFEISKEQMQPTHPIRLGLALNFSVFYYEIQNAPEQACLLAKQAFDDAIAELDTLNEDSYKDSTLIMQLLRDNLTLWTSDQQDEEAGEGN
